From publication PMC6773690, “Scribble co-operatively binds multiple α1D-adrenergic receptor C-terminal PDZ ligands” (Scientific Reports, 2019)
No constants are given. Whether binding was seen depends on the method and setting. Binding calls can cover weak binding; strength is not graded here. Sequences can lack the tags named with a protein.

By UniProt entry, the sequences of proteins in these tests, tags left out. Where a name states a change or a piece, a line headed by the entry shows the natural chain unless it says otherwise.
UniProt P25100: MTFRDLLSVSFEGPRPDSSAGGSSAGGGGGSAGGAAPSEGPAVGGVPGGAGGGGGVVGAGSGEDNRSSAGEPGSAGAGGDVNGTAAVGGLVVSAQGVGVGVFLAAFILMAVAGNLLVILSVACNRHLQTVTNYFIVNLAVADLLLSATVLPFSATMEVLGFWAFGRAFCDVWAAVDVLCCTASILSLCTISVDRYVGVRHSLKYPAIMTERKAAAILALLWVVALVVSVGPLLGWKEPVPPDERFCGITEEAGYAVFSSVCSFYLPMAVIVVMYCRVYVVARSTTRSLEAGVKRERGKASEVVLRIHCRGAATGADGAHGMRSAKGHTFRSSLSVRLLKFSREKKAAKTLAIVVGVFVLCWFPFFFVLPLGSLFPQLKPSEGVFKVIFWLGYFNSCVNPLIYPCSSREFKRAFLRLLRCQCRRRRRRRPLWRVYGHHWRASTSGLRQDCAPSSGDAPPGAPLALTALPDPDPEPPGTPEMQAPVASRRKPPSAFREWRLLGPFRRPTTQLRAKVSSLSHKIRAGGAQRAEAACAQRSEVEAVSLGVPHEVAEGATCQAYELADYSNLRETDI

Molecular target: GST-SCRIB containing all 4 PDZ domains (WT)
Test: pull-down; SNAP GST-pulldown: 1 μM GST-tagged SCRIB proteins on glutathione agarose beads with serial dilutions of BG-782-labeled SNAP-α1D-CT, 1 h at 4 °C; washes 20 mM Tris-HCl pH 8.0, 200 mM NaCl, 0.05% NP-40; PAGE NIR; both purified

binding: binds
Binder: QAYELADYSNLRETDI (peptide, UniProt P25100 557-572, SNAP tag labeled with the SNAP substrate BG-782)
